At least one structure is not confirmed: it was looked up by name or label, or the drawing left a doubt.
System: PPAR gamma
Assay: PPAR gamma gene expression by Real Time PCR in differentiated 3T3L1 adipocytes
Format: cell-based
Details: Pioglitazone treated cells (SC) at the concentration studied (6 μg/ml)

For `CCc1ccc(CCOc2ccc(CC3SC(=O)NC3=O)cc2)nc1` (stereo not shown) [Pioglitazone], the “increase in PPAR gamma expression” value was “two fold increase”.
